In PubChem BioAssay AID1347423 (Functional Genomics Laboratory (NCATS/FGL), 2020) one finds z-score data, which are given here for 106 sequences.

Out of some 52,000 sequences screened, about 210 (0.4%) were called active.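 The calls were made as follows: active = gene whose silencing raises cell survival under the drug, median off-target-corrected z-score across its silencing RNAs 2 or more; inactive = the rest.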 This is one part of the list.

The nature of the test: Resistance to Poly (ADP-Ribose) Polymerase inhibitor: Gene Identification via Genome-wide siRNA Screen. To be noted: mouse BRCA2 R2336H ES cells, olaparib, CellTiter-Glo viability; hits give high values. An excerpt:
The role of Poly (ADP-Ribose) Polymerase (PARP) proteins in DNA repair has been elegantly utilized for the synthetic lethality-based treatment of BRCA-deficient tumors by PARP inhibitors. PARP inhibitors are now being used for treatment of BRCA-deficient breast and ovarian cancers. […] While several mechanisms of drug resistance have been identified, majority of these tumors develop drug resistance due to unknown causes. To identified novel regulators of chemo-resistance in BRCA2-mutated cells, we performed a genome wide siRNA library screen. We have found ES cells expressing a hypomorphic allele of BRCA2 to be hypersensitive to PAPP inhibitors (such as olaparib). We used ES cells expressing a mutant allele of BRCA2 that has a single amino acid substitution at position 2336 (arginine to histidine, R2336H). The screen was conducted using an Ambion (Thermo) Silencer Mouse Genome siRNA collection. The library targets 17,575 mouse genes with 3 siRNAs per gene. TET2 (E130014J05Rik) was identified as a top candidate.
Transfections were performed in 384 well plates (Corning 3707). Plates were coated with 0.1% gelatin in H2O overnight at ambient temperature. Gelatin solution was aspirated (BioTek EL406) and siRNAs were printed using a Bravo VPrep liquid handler integrated within a BioCel automation platform (Agilent). Cell viability was measured using CellTiter Glo (Promega). For transfections, […] of serum free media containing Lipofectamine RNAiMax […] was added to wells containing siRNA (0.8pmol). Lipid and siRNA were allowed to complex for 45 min at ambient temperature before addition of 1000 cells in DMEM, 30% FBS to yield final transfection mixtures containing 20 nM siRNA in DMEM, 15% FBS. PARPi (olaparib, AZD2281) was added 48 h post-transfection (500 nM) and viability (CellTiter Glo, Promega) was assayed 72 h later on a PerkinElmer Envision 2104 Multilabel plate reader. Ambion Silencer Select Negative Control #2 was incorporated on all screening plates (16 wells) and the median negative control value on each plate was used for normalization. An siRNA targeting Trp53 was used as a positive control. This control yielded a median protective effect of ~1.9 fold versus negative control throughout the screen. The median absolute deviation (MAD) based z-score was calculated for each siRNA. Genes were then ranked by taking the median value for all siRNAs tested against a given gene. Scores were also adjusted for seed-based off-target effects to help deprioritize likely false positives.
In general terms: ATP-based viability assays read luminescence as a measure of living cells.
With GGACAGAUGAGAGAGAAUUTT against Ttl, the z-score was inactive: 0.122. For GGCAUUGACAUCAUGUACUTT against Agxt the value was inactive: 2.16; for GGAUUGGUGCAACUUCAGATT against Sp4, inactive: 1.53. For “GGGACAAAGAGAUACACAUTT against 9530056K15Rik” the value was inactive: -1.18.

With GGUUUGGUGAAAACAAUCGTT against Akr1b3, the z-score is inactive: 1.47. As for GGAGCAGGACGAGAAUCAATT against Cdkn1c, the figure is inactive: 2.94; as for GCUUUUUGAUCACGUCGCUTT against Hk1, inactive: 0.423. Turning to GGACACACACACAAAUUUGTT against Vps29, the z-score is inactive: -1.23. As for GGAUGACAUGUCAUCAAAGTT against V1rj2, the figure is inactive: -0.249; as for GGAAAUUGUGAAAACUGGGTT against Copb2, inactive: -1.7. Turning to GGUUUUGAGAUUGAAAGAATT against Fer1l3, the z-score is inactive: -0.553. For GGUGUCCAAAAAUAAGCAATT against Top2a the value was inactive: 0.687; for CCAAUAGGUCUGCUUGCCUTT against Oxgr1, inactive: -0.4. For “GGUGAAAAACUGCUAAAUATT against 4921521F21Rik” the value was inactive: 1.77; for GGUUUUUAACCUCUCCUGGTT against Mela, inactive: -0.616. With GAAGACUUCGUCCUAACAGTT against Ctsg, the z-score is inactive: -1.51.

For the sequence GGAGCUGUAUGACCAUGCCTT against Rab25, the z-score is inactive: 0.282. As for GCUUGAACUUCCCGAGUGUTT against Krtcap3, the figure is inactive: 0.00774; as for GGGACAGUGUUUAUGACCCTT against Car5b, inactive: 1.28. For GGUGUGGUGUGAGAUCUAUTT against Adra2a the value was inactive: 0.0486; for GCUGUAGCUUCGGGCAAAGTT against BC043118, inactive: -1.31.

As to GGUUGUGUGUUAUUUAUAGTT against Irak2, the z-score is inactive: -0.71. As for GCACGAGACACUUUUCAUUTT against Dnajb5, the z-score is inactive: 0.836. As for GGGUCUUGAGAAUCUUAUGTT against Zfp454, the figure is inactive: 0.471; as for GGUCCAGAGGAUGAACAGATT against Crcp, inactive: -0.473; as for GGAAUGGUACUAUCAAAUATT against Bace2, inactive: -0.243.

Turning to GGUUUAACAAGGAAUUAGGTT against Gngt1, the z-score is inactive: 0.787. On to GGGAAUAUUCAGUUGACAATT against Iigp1, for which the z-score was inactive: -0.297. For GGUGAUUUCCAUCUACAACTT against Tgfb2 the value was inactive: 0.0584. As for “GGUGCCUGAGAUGCCCAAUTT against Defcr-rs12”, the figure is inactive: -0.888; as for GGUGAUGAGCAACUUGGACTT against S100a4, inactive: -0.23. For GGCCAAUUUGAAUAAUCUATT against Zfp119, the z-score was inactive: 0.0816. As for GGUUCAGAACCAGUCCAUCTT against BC024955, the figure is inactive: -0.59; as for UUCUAAUCACAAAGGUUGATT against Olfr1113, inactive: 0.464. In the case of GGCAUAUGUGCAAAUAAAATT against Tmem7, the z-score is inactive: -0.984.

Consider GGGAUAUUGAGUUAGCCUGTT against Bet1, for which the z-score is inactive: 0.788.

Regarding CGUGGCAAGAUGACUAUACTT against Ptprn2, the z-score was inactive: 0.724.

For GCCUAUUGUCAGAAAAGUUTT against Usp4, the z-score is inactive: -2.18.

As to GGUUAUUGAGGAGUUCUACTT against Slc2a1, the z-score was inactive: -0.111. For GGACAAGGUAUCAUAUUGGTT against Siat4a the value was inactive: -0.171; for GGAGUUAAAGAGCUUAGGCTT against Cstf2t, inactive: -0.976.

Consider GGCAUCAGAGCAUCUGUGCTT against Ankrd16, for which the z-score was inactive: -1.4.

As to “GCUUGUUAAAAACGAAUUCTT against 4921510H08Rik”, the z-score is inactive: 0.058. GGUAACUGUGGACUUGCUUTT against Olfr1213: the z-score was inactive: 0.36. As for “GGAAAGACUACAAGAAUUUTT against 1700013H19Rik”, the figure is inactive: 2.87; as for CGCGCUUCUACUUUUUUUATT against Titf1, inactive: -0.765. Turning to CGAGAGCAUUAAUUACUUCTT against Sulf1, the z-score was inactive: 0.635. For GCUGGAUUACAUCACAUACTT against Sf3a3 the value was inactive: -1.89; for GGCAGACAGUCUAACAGAUTT against Krt2-6a, inactive: 0.914. ACAAAUAUUCCCUGGCCACTT against Slc39a13: the z-score was inactive: -1.4. For GGAGGAGCCUGUUCCAGAATT against Bcl7c the value was inactive: -2.49.

Consider GGUGGACUACUCACGAUUCTT against Kcnj4, for which the z-score was inactive: -0.284. Take GCAACUCAAUCUGGUCACUTT against Psme1: the z-score is inactive: 0.489. As for GCACACGAUUCCUCAUGGATT against Pigw, the figure is inactive: 1.87; as for “GCCAAUGCAGGGUAAGUACTT against D330034A10Rik”, inactive: 0.657. For GGAGUUGUAAAGUUUGGCUTT against Slc12a2 the value was inactive: 0.512.

Regarding GGUGAUUCACAUAACAGGCTT against Npas3, the z-score is inactive: 0.663. For GGGAGUUCAACUUGAUGUATT against Irf6, the z-score was inactive: -0.685. As for GCCUACAUUCACUCACUCCTT against Olfr1061, the figure is inactive: -0.166. For GGCAUGUGUGAGAAUCAAUTT against Clrf the value was inactive: -0.251. Turning to GGAGAUCGAGUUCAACAUUTT against Olfr557, the z-score is inactive: -0.792. For GGUUUUUCUCACUUUUGUATT against Siah1a the value was inactive: -0.665; for GGUGAAUUCAACUCUCUAATT against Decr1, inactive: 0.568. As for GGAGGAAAAAAAGUGAAGATT against Zfp339, the z-score was inactive: 0.689. For “GGGCAAUGUUUGUCACUAATT against 2310005E10Rik” the value was inactive: 1.62. For GGUGCAAGAUAGUACGAUGTT against Gle1l the value was inactive: -2.71; for “CCUUUCAUACCUUAGGUUATT against B430110G05Rik”, inactive: 0.631. For GGAGCUUAGUCUAAUUGAATT against Ms4a6c the value was inactive: 0.226. Regarding GGUACACCACAAUCCUCACTT against Olfr676, the z-score is inactive: -0.646. As for GGCAAAUAAAUGAUCCAAATT against Echs1, the figure is inactive: 0.5; as for GGAGAUGAUUUCCUACUUCTT against Rasgrp2, inactive: 0.191. As for CGCAUACUGAUGAUAACUATT against Zfp75, the figure is inactive: -0.568; as for GGUCAAAUGCACCCGAUUATT against Hoxc10, inactive: -0.393; as for GCCACCUUCCAAGCUCAAATT against Hist3h2ba, inactive: -0.9. For GGUGUGUAUGAUGCUGGCATT against Olfr1508 the value was inactive: -0.955; for GGAAACCUCCGAAAGGCAUTT against D12Wsu95e, inactive: 0.434; for GGAGAAGAAUUCAUUUCUCTT against Myst2, inactive: 0.764. Turning to GAAUCCUACGGUUGAAUAUTT against Hrmt1l3, the z-score was inactive: 0.58. For GGCAUUGAACAAGAAAGAATT against Mef2c the value was inactive: -0.0416; for CCCUAGCUAUAAAACUCUCTT against Rabif, inactive: 0.363; for GAAACUACACCUCAGAGUGTT against AI481500, inactive: -1.7.

Turning to GGUCGAACAGAAGAUUGCUTT against Got1, the z-score is inactive: -0.989.

Consider GGAUUCUGAGCGUAGCUGATT against BC038925, for which the z-score is inactive: -0.295. Regarding GCUGAACUAUAACUUGAAATT against Stat1, the z-score is inactive: 0.735. For GAGGGAAAUACAUUCUAACTT against NMS the value was inactive: 0.736.

Regarding GGCAAACUAUGCCUUCAAGTT against Cib2, the z-score was inactive: 0.426. For “UCCUGUCUGGUUCCUUUUUTT against 3300001H21Rik” the value was inactive: 1.72. As for CGCAAUACCAGCAAAAGACTT against Tmem7, the figure is inactive: 0.219; as for GGAAGACAGCACCAUGAACTT against Il17f, inactive: 1.59.

Take CCCUAAUAAAUUCCAAAUCTT against H2-Ke6: the z-score is inactive: 1.19. As for GGGUCCACAUCUUGAGCUUTT against Fxyd7, the figure is inactive: -1.3; as for CCUUAAGAUCAUUUACCCATT against Mixl1, inactive: 0.246; as for GGAGAGACCUCUGAGAUUGTT against Ephb6, inactive: -1.49. Turning to GCCCUAGAACUUUUGAAUUTT against Dhx15, the z-score is inactive: -1.01. As for GACUGCUACAAGGUGAAGATT against Mrpl36, the figure is inactive: 0.682. For GCUAGGCAGUGAAGUUGAUTT against Atf4 the value was inactive: -2.35; for CGAGGUACUCCAGAAUAGATT against Gdf8, inactive: -0.886; for “GGCUUUGAUCAGCUCAGAATT against C530050O22Rik”, inactive: -1.15. As for GGAUCUGAAGGUGAUGUCATT against H2-Q10, the figure is inactive: -3.34.

Regarding GGGCAUCCAGGAUUAUGUGTT against Vamp5, the z-score is inactive: 0.216. With AGAGAUGGAAAGUGGUUUCTT against Olfr1226, the z-score was inactive: 1.65. As for GGGACUUGGAUCGAAUGGATT against Apeh, the figure is inactive: 1.74; as for GCUUCUUACAGUUUGCCCATT against V1rd6, inactive: 0.146. For GCUCUUUCUAGCCCUUCCCTT against Spry3 the value was inactive: -0.575. As for UCACUUGUACCAAAAAUGATT against Adcy1, the figure is inactive: -0.552; as for “GCGCAUGCAACAGAAGUAUTT against D130016K21Rik”, inactive: 0.00483.
